From patent US20090036380A1, “Composition And Method For Brain Tumor Therapy” (Yeda Research and Development Co., Ltd., priority 2006, published 2009) come the findings set out here.

Sequences of proteins named here, by UniProt entry; tags and fusion partners are left off. Residues count along the entry.
UniProt P18760, residues 2-166: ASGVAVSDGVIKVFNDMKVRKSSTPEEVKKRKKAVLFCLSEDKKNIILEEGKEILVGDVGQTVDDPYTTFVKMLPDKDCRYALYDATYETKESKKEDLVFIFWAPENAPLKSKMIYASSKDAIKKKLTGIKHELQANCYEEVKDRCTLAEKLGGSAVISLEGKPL
UniProt Q9QYJ0, residues 1-409: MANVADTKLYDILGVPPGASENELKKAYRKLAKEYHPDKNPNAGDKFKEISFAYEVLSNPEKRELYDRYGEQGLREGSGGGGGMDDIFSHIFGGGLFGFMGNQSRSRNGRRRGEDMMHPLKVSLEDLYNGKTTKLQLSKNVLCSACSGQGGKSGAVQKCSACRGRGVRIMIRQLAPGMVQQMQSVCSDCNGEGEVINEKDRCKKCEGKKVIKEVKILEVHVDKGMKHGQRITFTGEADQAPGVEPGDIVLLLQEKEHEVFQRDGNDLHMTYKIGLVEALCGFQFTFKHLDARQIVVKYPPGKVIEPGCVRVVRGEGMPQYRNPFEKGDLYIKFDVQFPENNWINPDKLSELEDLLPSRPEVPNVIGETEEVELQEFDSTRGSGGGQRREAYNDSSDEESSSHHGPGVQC
UniProt Q99020: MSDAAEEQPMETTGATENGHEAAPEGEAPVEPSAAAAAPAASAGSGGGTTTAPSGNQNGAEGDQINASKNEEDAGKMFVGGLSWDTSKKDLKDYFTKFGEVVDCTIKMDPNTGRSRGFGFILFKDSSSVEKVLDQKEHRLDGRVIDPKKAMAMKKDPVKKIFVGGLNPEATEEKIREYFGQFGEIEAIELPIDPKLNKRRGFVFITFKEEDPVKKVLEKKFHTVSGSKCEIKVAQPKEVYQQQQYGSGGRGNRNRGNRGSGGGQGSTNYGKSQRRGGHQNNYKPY
UniProt Q08624: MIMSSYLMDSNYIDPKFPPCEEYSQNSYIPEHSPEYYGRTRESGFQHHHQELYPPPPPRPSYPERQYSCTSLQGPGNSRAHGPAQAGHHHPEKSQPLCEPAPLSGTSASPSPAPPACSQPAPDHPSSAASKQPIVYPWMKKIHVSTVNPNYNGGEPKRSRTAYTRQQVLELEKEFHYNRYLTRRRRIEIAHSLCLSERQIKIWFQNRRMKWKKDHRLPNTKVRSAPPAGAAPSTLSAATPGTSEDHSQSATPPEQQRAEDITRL
UniProt Q9QXL1: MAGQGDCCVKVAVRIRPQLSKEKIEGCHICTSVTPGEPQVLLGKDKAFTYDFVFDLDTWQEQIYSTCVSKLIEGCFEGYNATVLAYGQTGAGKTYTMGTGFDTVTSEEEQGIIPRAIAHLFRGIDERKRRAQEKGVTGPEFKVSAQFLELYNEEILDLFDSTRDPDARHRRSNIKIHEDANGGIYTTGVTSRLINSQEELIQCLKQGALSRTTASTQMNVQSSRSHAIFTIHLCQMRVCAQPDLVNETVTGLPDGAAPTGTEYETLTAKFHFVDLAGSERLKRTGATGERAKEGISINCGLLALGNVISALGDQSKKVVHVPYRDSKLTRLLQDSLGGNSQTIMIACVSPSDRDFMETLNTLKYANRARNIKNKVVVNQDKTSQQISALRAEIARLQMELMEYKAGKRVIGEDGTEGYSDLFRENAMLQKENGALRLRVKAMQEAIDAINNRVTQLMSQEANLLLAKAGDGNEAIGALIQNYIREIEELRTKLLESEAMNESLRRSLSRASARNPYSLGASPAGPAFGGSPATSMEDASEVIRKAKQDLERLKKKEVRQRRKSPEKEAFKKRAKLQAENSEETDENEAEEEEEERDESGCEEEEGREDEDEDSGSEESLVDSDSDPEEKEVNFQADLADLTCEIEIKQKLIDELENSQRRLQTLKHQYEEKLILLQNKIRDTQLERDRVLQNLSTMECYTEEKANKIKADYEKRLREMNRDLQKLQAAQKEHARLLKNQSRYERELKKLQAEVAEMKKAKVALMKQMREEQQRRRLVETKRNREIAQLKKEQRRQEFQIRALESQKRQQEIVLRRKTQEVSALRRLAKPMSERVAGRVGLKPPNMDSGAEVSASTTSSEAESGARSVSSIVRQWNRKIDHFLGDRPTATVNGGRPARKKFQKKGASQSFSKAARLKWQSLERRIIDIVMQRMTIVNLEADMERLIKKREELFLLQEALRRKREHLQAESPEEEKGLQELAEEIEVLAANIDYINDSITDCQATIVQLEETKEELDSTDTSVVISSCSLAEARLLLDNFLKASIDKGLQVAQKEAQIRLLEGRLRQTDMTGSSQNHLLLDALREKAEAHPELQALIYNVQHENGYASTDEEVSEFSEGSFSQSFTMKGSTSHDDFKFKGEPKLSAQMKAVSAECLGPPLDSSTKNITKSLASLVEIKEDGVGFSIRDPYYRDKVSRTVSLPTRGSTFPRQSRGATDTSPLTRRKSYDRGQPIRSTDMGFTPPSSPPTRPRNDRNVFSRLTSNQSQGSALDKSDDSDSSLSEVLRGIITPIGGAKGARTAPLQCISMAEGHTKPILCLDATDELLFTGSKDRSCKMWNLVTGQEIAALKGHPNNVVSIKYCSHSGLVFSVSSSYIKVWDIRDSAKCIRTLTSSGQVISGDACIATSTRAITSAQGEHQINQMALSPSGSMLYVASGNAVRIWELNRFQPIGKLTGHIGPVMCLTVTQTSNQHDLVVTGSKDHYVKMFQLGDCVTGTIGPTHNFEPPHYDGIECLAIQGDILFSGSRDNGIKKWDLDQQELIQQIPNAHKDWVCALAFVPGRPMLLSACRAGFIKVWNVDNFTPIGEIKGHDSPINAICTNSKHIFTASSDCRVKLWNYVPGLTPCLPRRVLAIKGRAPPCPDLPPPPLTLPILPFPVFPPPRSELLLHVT
UniProt P03903, residues 9-98: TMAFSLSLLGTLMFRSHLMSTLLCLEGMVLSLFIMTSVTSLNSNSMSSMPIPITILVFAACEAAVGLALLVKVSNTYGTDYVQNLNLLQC
UniProt Q91ZZ3: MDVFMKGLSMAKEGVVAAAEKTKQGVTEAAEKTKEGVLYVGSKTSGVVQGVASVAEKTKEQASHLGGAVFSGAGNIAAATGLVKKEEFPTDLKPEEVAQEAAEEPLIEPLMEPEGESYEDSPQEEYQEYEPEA
UniProt Q61142: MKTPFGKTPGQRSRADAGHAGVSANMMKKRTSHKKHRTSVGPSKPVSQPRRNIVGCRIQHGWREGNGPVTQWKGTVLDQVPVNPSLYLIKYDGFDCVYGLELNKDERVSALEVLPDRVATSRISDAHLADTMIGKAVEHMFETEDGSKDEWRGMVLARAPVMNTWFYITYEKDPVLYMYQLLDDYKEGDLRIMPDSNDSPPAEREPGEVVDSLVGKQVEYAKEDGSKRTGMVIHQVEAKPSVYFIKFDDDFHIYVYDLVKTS
UniProt P10126, residues 2-462: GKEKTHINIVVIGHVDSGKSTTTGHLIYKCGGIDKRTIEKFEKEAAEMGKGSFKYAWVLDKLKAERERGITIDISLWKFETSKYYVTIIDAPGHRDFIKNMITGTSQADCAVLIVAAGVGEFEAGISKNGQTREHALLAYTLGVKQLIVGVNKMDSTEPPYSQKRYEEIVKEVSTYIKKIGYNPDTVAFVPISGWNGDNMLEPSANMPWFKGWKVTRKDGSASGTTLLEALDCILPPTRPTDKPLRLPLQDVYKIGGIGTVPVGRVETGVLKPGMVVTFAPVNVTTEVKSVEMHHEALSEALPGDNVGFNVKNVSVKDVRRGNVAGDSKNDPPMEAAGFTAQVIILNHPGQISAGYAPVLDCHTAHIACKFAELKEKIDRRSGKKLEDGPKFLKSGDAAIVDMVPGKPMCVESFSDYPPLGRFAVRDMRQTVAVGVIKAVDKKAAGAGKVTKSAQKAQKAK

For experiment [1], the target named is T1, Karet PTB domain (RRS bait) (mouse) (UniProt Q8K2Y9).
T1 sequence: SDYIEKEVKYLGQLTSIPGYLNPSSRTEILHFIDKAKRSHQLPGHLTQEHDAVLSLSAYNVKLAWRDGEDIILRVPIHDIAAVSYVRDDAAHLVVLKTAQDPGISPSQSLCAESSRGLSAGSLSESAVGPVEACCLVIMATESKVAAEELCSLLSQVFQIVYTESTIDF
Description: RRS screen in yeast, Karet PTB domain against an embryonic mouse brain library.

Experiment [2] addresses full length Karet protein (RRS bait) (mouse) (UniProt Q8K2Y9). Description: RRS screen in yeast, whole Karet protein against an embryonic mouse brain library.

These are yes or no findings as the source states them, for the method shown. Some entries that bind do so weakly or less than the wild type.

On to “Cofilin 1, non-muscle (Cfl1), mRNA (from UniProt P18760 2-166)”, for which the binding entry in experiment [1] was “binds”.
The same measure, in the same setting: the same measure for “Cytochrome c oxidase Subunit I (COI) (from UniProt P00397 1-514)”: “binds”; for “DnaJ (Hsp40) homolog, subfamily A, member 2 (Dnaja2), mRNA (from UniProt Q9QYJ0 1-409)”: “binds”.
Same read-out and setting: the value for “Heterogeneous nuclear ribonucleoprotein A/B (from UniProt Q99020 1-285)” was “binds”; that for “Homeo box C4 (Hoxc4), mRNA (from UniProt Q08624 1-264)” was “binds”.
Consider “Kinesin family member 21B (Kif21b), mRNA (from UniProt Q9QXL1 1-1668)”, for which, in experiment [2], the binding entry is reported as “binds”.
In the case of “NADH dehydrogenase subunit 4L (from UniProt P03903 9-98)”, the binding entry in experiment [2] is “binds”.
For the substance “SNCB - beta synuclein (from UniProt Q91ZZ3 1-133)”, in experiment [1], the binding result is on record as “binds”.
The same measure, in the same setting: the value for Spindlin (from UniProt Q61142 1-262) was “binds”; that for “Translation elongation factor 1 alpha (from UniProt P10126 2-462)” was “binds”.
